{"source": "the supplement of paper PMC8728848", "binders": {"B1": {"name": "PEB3 (Campylobacter jejuni), Q0PBL7 (protein)", "chain": "MKKIITLFGACALAFSMANADVNLYGPGGPHTALKDIANKYSEKTGVKVNVNFGPQATWFEKAKKDADILFGASDQSALAIASDFGKDFNVSKIKPLYFREAIILTQKGNPLKIKGLKDLANKKVRIVVPEGAGKSNTSGTGVWEDMIGRTQDIKTIQNFRNNIVAFVPNSGSARKLFAQDQADAWITWIDWSKSNPDIGTAVAIEKDLVVYRTFNVIAKEGASKETQDFIAYLSSKEAKEIFKKYGWRE"}}, "test_in_all_cases": "glycan array binding signal (z-score within array); higher = stronger binding", "details_in_all_cases": "glycan notation: IUPAC condensed, linker removed", "key": {"[1]": {"molecular_target": "GlcNAc(b1-2)Gal(b1-3)GalNAc", "method_in_brief": "(§1)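 Negative Z-scores can be read as non-binding. The Z-score is calculated within each array and then averaged across arrays of one protein sequence at different concentrations or buffers and across linkers. Arrays, 3228 in all, were curated from the Consortium for Functional Glycomics database and kept only where the protein sequence was available.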"}, "[2]": {"molecular_target": "GlcNAc(b1-2)Man(a1-3)[GlcNAc(b1-2)Man(a1-6)]Man(b1-4)GlcNAc(b1-4)GlcNAc", "method_in_brief": "as §1"}, "[3]": {"molecular_target": "GlcNAc(b1-2)Man(a1-3)[GlcNAc(b1-2)Man(a1-6)]Man(b1-4)GlcNAc(b1-4)[Fuc(a1-6)]GlcNAc", "method_in_brief": "as §1"}, "[4]": {"molecular_target": "GlcNAc(b1-2)[GlcNAc(b1-4)]Man(a1-3)[GlcNAc(b1-2)Man(a1-6)]Man(b1-4)GlcNAc(b1-4)GlcNAc", "method_in_brief": "as §1"}, "GlcNAc(b1-3)Gal": {"molecular_target": "GlcNAc(b1-3)Gal", "method_in_brief": "as §1"}, "[5]": {"molecular_target": "GlcNAc(b1-3)Gal(b1-3)GalNAc", "method_in_brief": "as §1"}, "GlcNAc(b1-3)Gal(b1-4)Glc": {"molecular_target": "GlcNAc(b1-3)Gal(b1-4)Glc", "method_in_brief": "as §1"}, "[6]": {"molecular_target": "GlcNAc(b1-3)Gal(b1-4)GlcNAc", "method_in_brief": "as §1"}, "[7]": {"molecular_target": "GlcNAc(b1-3)Gal(b1-4)GlcNAc(b1-3)Gal(b1-4)GlcNAc", "method_in_brief": "as §1"}, "GlcNAc(b1-3)GalNAc": {"molecular_target": "GlcNAc(b1-3)GalNAc", "method_in_brief": "as §1"}, "GlcNAc(b1-3)Man": {"molecular_target": "GlcNAc(b1-3)Man", "method_in_brief": "as §1"}, "[8]": {"molecular_target": "GlcNAc(b1-3)[GlcNAc(b1-4)][GlcNAc(b1-6)]GlcNAc", "method_in_brief": "as §1"}, "[9]": {"molecular_target": "GlcNAc(b1-3)[GlcNAc(b1-6)]Gal(b1-4)GlcNAc", "method_in_brief": "as §1"}, "[10]": {"molecular_target": "GlcNAc(b1-3)[GlcNAc(b1-6)]GalNAc", "method_in_brief": "as §1"}, "[11]": {"molecular_target": "GlcNAc(b1-4)Gal(b1-4)GlcNAc", "method_in_brief": "as §1"}, "GlcNAc(b1-4)GlcNAc": {"molecular_target": "GlcNAc(b1-4)GlcNAc", "method_in_brief": "as §1"}, "[12]": {"molecular_target": "GlcNAc(b1-4)GlcNAc(b1-4)GlcNAc", "method_in_brief": "as §1"}, "[13]": {"molecular_target": "GlcNAc(b1-4)GlcNAc(b1-4)GlcNAc(b1-4)GlcNAc(b1-4)GlcNAc", "method_in_brief": "as §1"}, "[14]": {"molecular_target": "GlcNAc(b1-4)GlcNAc(b1-4)GlcNAc(b1-4)GlcNAc(b1-4)GlcNAc(b1-4)GlcNAc", "method_in_brief": "as §1"}, "[15]": {"molecular_target": "GlcNAc(b1-4)[GlcNAc(b1-6)]GalNAc", "method_in_brief": "as §1"}, "[16]": {"molecular_target": "GlcNAc(b1-6)Gal(b1-4)GlcNAc", "method_in_brief": "as §1"}, "GlcNAc(b1-6)GalNAc": {"molecular_target": "GlcNAc(b1-6)GalNAc", "method_in_brief": "as §1"}, "GlcNAc3Prop(b1-4)GlcNAc": {"molecular_target": "GlcNAc3Prop(b1-4)GlcNAc", "method_in_brief": "as §1"}, "[17]": {"molecular_target": "GlcNAc6S(b1-3)Gal(b1-4)GlcNAc", "method_in_brief": "as §1"}, "Kdn(a2-3)Gal(b1-3)GalNAc": {"molecular_target": "Kdn(a2-3)Gal(b1-3)GalNAc", "method_in_brief": "as §1"}, "Kdn(a2-3)Gal(b1-3)GlcNAc": {"molecular_target": "Kdn(a2-3)Gal(b1-3)GlcNAc", "method_in_brief": "as §1"}, "Kdn(a2-3)Gal(b1-4)Glc": {"molecular_target": "Kdn(a2-3)Gal(b1-4)Glc", "method_in_brief": "as §1"}, "Kdn(a2-3)Gal(b1-4)GlcNAc": {"molecular_target": "Kdn(a2-3)Gal(b1-4)GlcNAc", "method_in_brief": "as §1"}, "[18]": {"molecular_target": "Kdn(a2-3)Gal(b1-4)[Fuc(a1-3)]GlcNAc", "method_in_brief": "as §1"}, "Kdn(a2-6)Gal(b1-4)GlcNAc": {"molecular_target": "Kdn(a2-6)Gal(b1-4)GlcNAc", "method_in_brief": "as §1"}, "[19]": {"molecular_target": "Man(a1-2)Man(a1-2)Man(a1-3)Man", "method_in_brief": "as §1"}, "[20]": {"molecular_target": "Man(a1-2)Man(a1-2)Man(a1-6)[Man(a1-3)]Man", "method_in_brief": "as §1"}, "Man(a1-2)Man(a1-3)Man": {"molecular_target": "Man(a1-2)Man(a1-3)Man", "method_in_brief": "as §1"}, "[21]": {"molecular_target": "Man(a1-2)Man(a1-3)[Man(a1-2)Man(a1-6)]Man", "method_in_brief": "as §1"}, "[22]": {"molecular_target": "Man(a1-2)Man(a1-3)[Man(a1-2)Man(a1-6)]Man(a1-6)[Man(a1-2)Man(a1-2)Man(a1-3)]Man", "method_in_brief": "as §1"}, "[23]": {"molecular_target": "Man(a1-2)Man(a1-3)[Man(a1-2)Man(a1-6)]Man(a1-6)[Man(a1-2)Man(a1-2)Man(a1-3)]Man(b1-4)GlcNAc(b1-4)GlcNAc", "method_in_brief": "as §1"}, "[24]": {"molecular_target": "Man(a1-2)Man(a1-3)[Man(a1-6)]Man(a1-6)[Man(a1-2)Man(a1-3)]Man(b1-4)GlcNAc(b1-4)GlcNAc", "method_in_brief": "as §1"}, "[25]": {"molecular_target": "Man(a1-2)Man(a1-6)[Man(a1-3)]Man(a1-6)[Man(a1-2)Man(a1-2)Man(a1-3)]Man", "method_in_brief": "as §1"}}, "note": "The other results are listed elsewhere or left out."}
{"binder": "B1", "values": [{"measurement": "glycan array binding signal (z-score)", "setting": "[1]", "value": -0.834}, {"measurement": "glycan array binding signal (z-score)", "setting": "[2]", "value": 0.259}, {"measurement": "glycan array binding signal (z-score)", "setting": "[3]", "value": 1.7}, {"measurement": "glycan array binding signal (z-score)", "setting": "[4]", "value": 0.825}, {"measurement": "glycan array binding signal (z-score)", "setting": "GlcNAc(b1-3)Gal", "value": -0.223}, {"measurement": "glycan array binding signal (z-score)", "setting": "[5]", "value": 2.96}, {"measurement": "glycan array binding signal (z-score)", "setting": "GlcNAc(b1-3)Gal(b1-4)Glc", "value": -1.09}, {"measurement": "glycan array binding signal (z-score)", "setting": "[6]", "value": -1.25}, {"measurement": "glycan array binding signal (z-score)", "setting": "[7]", "value": -1.89}, {"measurement": "glycan array binding signal (z-score)", "setting": "GlcNAc(b1-3)GalNAc", "value": -0.715}, {"measurement": "glycan array binding signal (z-score)", "setting": "GlcNAc(b1-3)Man", "value": -1.1}, {"measurement": "glycan array binding signal (z-score)", "setting": "[8]", "value": 1.35}, {"measurement": "glycan array binding signal (z-score)", "setting": "[9]", "value": -0.395}, {"measurement": "glycan array binding signal (z-score)", "setting": "[10]", "value": -0.337}, {"measurement": "glycan array binding signal (z-score)", "setting": "[11]", "value": -1.18}, {"measurement": "glycan array binding signal (z-score)", "setting": "GlcNAc(b1-4)GlcNAc", "value": 0.361}, {"measurement": "glycan array binding signal (z-score)", "setting": "[12]", "value": 0.412}, {"measurement": "glycan array binding signal (z-score)", "setting": "[13]", "value": -1.17}, {"measurement": "glycan array binding signal (z-score)", "setting": "[14]", "value": 0.111}, {"measurement": "glycan array binding signal (z-score)", "setting": "[15]", "value": -0.607}, {"measurement": "glycan array binding signal (z-score)", "setting": "[16]", "value": -0.56}, {"measurement": "glycan array binding signal (z-score)", "setting": "GlcNAc(b1-6)GalNAc", "value": -0.38}, {"measurement": "glycan array binding signal (z-score)", "setting": "GlcNAc3Prop(b1-4)GlcNAc", "value": 0.009}, {"measurement": "glycan array binding signal (z-score)", "setting": "[17]", "value": 1.03}, {"measurement": "glycan array binding signal (z-score)", "setting": "Kdn(a2-3)Gal(b1-3)GalNAc", "value": -0.454}, {"measurement": "glycan array binding signal (z-score)", "setting": "Kdn(a2-3)Gal(b1-3)GlcNAc", "value": 0.448}, {"measurement": "glycan array binding signal (z-score)", "setting": "Kdn(a2-3)Gal(b1-4)Glc", "value": 0.655}, {"measurement": "glycan array binding signal (z-score)", "setting": "Kdn(a2-3)Gal(b1-4)GlcNAc", "value": 0.159}, {"measurement": "glycan array binding signal (z-score)", "setting": "[18]", "value": -1.63}, {"measurement": "glycan array binding signal (z-score)", "setting": "Kdn(a2-6)Gal(b1-4)GlcNAc", "value": -0.205}, {"measurement": "glycan array binding signal (z-score)", "setting": "[19]", "value": 0.073}, {"measurement": "glycan array binding signal (z-score)", "setting": "[20]", "value": 0.18}, {"measurement": "glycan array binding signal (z-score)", "setting": "Man(a1-2)Man(a1-3)Man", "value": -0.169}, {"measurement": "glycan array binding signal (z-score)", "setting": "[21]", "value": -0.758}, {"measurement": "glycan array binding signal (z-score)", "setting": "[22]", "value": 0.542}, {"measurement": "glycan array binding signal (z-score)", "setting": "[23]", "value": -1.19}, {"measurement": "glycan array binding signal (z-score)", "setting": "[24]", "value": -0.005}, {"measurement": "glycan array binding signal (z-score)", "setting": "[25]", "value": -0.36}]}
